The supplement of paper PMC10849652
Some of the results follow.

Protein sequences, listed by entry. Tags and fused reporters are not part of them. Lines headed by an entry give the natural chain unless they say otherwise; changes in a name come on top.
UniProt O95202: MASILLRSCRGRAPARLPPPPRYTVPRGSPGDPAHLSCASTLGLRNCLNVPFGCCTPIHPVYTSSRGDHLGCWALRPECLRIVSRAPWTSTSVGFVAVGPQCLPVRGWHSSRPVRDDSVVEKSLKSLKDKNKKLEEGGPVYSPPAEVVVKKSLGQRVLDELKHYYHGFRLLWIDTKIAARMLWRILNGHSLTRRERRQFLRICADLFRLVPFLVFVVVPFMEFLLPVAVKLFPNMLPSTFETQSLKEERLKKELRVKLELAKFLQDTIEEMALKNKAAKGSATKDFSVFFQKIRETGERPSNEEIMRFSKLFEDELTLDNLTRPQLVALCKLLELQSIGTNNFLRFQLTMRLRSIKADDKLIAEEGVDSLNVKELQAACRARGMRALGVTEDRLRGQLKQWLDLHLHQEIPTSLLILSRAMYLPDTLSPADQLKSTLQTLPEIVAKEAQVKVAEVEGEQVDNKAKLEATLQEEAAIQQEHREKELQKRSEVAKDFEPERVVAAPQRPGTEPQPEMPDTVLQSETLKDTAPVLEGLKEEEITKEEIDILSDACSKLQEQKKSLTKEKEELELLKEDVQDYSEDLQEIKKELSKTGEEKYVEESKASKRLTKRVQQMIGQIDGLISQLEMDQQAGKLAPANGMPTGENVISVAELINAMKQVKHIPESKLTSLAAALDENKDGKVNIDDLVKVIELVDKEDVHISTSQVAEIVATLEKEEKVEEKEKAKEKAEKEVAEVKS
UniProt Q9BRT6: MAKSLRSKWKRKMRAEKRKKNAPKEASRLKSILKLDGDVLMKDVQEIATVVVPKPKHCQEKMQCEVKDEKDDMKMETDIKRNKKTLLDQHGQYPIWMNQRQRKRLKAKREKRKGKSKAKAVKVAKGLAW
UniProt Q8N1G4: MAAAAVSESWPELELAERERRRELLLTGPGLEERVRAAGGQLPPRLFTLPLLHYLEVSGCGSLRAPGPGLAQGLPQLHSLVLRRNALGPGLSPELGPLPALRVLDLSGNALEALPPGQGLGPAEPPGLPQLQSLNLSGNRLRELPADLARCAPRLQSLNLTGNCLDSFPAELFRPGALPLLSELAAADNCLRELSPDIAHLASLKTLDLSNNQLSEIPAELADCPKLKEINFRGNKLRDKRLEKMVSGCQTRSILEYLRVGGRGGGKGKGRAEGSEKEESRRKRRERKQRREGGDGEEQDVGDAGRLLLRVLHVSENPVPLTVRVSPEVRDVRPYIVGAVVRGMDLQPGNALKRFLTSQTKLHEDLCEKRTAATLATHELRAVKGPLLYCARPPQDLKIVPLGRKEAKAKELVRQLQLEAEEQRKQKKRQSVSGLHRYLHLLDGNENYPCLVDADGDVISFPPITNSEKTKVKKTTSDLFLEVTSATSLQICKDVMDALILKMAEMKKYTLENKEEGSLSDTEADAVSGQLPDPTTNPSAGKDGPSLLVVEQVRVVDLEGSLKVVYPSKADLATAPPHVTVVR
UniProt Q03252: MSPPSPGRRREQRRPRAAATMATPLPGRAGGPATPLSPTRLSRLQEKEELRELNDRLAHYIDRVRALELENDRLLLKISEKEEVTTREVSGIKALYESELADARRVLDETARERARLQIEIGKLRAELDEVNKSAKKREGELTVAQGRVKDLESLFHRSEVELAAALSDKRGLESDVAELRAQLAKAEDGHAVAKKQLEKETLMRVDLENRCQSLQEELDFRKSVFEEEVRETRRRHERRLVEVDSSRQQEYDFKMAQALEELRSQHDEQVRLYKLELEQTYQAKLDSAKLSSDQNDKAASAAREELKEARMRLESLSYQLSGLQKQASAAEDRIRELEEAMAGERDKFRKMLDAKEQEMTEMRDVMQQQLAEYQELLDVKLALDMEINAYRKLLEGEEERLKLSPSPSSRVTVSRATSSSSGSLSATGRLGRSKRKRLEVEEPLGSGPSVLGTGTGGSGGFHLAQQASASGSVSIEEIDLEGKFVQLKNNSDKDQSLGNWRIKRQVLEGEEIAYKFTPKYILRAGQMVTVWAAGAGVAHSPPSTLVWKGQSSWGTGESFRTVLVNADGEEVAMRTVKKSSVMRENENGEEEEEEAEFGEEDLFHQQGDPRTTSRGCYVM
UniProt Q15031: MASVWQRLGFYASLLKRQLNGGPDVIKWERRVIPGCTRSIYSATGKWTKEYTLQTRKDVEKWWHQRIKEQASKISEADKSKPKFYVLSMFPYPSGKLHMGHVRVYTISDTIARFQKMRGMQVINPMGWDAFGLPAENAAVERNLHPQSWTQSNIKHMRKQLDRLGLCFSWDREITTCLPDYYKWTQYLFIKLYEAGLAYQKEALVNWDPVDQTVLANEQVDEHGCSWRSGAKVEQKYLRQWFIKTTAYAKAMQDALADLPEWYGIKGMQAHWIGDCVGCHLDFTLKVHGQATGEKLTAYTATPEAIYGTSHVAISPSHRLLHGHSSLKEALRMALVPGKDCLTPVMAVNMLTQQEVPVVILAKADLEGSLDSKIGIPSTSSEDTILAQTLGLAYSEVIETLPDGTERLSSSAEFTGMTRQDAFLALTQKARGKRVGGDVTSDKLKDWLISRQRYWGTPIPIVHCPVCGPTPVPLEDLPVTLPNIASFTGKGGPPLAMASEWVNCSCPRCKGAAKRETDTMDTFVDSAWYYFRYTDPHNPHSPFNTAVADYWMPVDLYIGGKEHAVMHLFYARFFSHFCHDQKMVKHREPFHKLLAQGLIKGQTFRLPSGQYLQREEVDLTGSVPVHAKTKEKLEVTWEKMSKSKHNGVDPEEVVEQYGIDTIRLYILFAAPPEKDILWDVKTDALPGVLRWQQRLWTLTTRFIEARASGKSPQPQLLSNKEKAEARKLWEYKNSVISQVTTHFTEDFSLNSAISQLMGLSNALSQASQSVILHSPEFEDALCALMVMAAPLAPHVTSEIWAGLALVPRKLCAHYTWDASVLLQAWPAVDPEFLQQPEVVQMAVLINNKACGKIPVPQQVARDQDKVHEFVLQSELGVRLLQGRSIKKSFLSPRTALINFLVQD
UniProt Q96EM0: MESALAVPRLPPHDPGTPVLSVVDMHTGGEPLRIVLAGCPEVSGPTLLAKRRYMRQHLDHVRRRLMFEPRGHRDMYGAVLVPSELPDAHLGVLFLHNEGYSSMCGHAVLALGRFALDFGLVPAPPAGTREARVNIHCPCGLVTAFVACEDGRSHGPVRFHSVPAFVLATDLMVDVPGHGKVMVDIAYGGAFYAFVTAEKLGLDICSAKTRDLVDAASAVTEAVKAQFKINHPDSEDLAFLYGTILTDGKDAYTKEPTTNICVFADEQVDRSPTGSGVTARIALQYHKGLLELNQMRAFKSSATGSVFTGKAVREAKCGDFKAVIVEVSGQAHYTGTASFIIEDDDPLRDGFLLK
UniProt Q9UGP4: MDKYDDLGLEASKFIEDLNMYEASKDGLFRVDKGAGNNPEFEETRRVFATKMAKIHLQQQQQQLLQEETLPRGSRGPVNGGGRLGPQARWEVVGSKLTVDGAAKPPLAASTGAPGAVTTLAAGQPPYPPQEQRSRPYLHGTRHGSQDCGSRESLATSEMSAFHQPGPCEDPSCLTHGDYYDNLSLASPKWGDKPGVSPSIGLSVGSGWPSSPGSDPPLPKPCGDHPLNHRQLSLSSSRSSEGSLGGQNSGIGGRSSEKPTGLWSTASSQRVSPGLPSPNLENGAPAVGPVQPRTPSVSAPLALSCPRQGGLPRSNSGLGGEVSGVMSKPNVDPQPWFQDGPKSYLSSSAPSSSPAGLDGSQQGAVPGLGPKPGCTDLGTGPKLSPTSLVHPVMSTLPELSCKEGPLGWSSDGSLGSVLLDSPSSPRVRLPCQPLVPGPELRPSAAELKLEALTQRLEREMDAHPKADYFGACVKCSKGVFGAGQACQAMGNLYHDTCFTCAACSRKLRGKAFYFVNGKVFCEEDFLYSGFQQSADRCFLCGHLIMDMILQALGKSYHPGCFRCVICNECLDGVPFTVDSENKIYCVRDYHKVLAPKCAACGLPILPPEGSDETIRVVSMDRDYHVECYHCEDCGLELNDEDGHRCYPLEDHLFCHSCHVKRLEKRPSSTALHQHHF
UniProt Q9NUN5: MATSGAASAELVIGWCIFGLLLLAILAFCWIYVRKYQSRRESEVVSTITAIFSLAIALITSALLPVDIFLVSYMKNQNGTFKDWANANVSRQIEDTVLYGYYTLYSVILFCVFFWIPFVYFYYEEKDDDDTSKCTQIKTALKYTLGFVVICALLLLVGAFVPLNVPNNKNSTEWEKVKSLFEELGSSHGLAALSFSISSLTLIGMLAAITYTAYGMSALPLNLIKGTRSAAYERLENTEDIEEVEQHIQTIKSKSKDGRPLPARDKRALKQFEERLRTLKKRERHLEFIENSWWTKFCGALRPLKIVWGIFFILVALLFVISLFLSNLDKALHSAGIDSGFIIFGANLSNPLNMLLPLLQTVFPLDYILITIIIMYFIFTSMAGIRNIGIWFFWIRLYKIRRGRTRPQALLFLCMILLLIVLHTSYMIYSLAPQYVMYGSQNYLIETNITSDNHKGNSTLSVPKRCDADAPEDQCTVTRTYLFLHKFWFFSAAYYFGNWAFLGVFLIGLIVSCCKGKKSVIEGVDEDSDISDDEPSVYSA
UniProt Q53H82: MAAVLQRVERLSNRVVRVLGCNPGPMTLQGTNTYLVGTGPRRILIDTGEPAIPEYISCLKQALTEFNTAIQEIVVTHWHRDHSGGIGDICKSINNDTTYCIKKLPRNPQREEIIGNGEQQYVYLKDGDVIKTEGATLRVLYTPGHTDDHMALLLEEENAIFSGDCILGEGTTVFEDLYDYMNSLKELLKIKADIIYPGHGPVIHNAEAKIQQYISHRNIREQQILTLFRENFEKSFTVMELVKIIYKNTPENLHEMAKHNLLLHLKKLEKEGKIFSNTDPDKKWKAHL
UniProt Q68DH5: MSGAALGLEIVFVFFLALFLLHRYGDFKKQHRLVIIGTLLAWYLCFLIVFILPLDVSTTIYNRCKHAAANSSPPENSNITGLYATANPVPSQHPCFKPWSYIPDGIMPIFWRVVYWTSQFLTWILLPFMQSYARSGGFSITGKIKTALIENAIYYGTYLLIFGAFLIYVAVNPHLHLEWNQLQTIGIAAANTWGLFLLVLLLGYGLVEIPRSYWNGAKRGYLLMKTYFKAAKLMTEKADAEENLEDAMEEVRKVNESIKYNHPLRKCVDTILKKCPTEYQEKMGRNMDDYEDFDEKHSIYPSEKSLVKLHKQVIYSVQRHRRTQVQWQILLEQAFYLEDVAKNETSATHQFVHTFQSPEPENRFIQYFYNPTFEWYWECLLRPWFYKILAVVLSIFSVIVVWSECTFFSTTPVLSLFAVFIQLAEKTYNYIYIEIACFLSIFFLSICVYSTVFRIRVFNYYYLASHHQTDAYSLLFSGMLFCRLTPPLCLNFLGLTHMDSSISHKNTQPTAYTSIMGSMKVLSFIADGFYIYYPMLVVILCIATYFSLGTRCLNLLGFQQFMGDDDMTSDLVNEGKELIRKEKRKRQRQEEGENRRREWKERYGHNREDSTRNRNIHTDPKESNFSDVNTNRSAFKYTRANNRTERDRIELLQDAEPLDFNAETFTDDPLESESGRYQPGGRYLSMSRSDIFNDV
UniProt Q96BZ8: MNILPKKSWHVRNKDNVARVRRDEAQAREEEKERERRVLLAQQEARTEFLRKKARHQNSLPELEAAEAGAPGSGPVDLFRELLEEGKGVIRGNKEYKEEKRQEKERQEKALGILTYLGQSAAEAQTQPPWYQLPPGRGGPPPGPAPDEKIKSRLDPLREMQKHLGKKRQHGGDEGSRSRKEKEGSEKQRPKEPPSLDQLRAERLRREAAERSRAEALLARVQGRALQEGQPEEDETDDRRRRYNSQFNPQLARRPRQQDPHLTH
UniProt Q6ZN17: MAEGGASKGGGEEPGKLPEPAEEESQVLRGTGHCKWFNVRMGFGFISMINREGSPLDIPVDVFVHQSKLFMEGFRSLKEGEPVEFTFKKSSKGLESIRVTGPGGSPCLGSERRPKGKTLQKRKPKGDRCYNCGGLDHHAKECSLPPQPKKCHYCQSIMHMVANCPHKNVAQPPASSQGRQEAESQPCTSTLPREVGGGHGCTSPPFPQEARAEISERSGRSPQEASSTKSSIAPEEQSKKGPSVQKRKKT
UniProt Q96EK9: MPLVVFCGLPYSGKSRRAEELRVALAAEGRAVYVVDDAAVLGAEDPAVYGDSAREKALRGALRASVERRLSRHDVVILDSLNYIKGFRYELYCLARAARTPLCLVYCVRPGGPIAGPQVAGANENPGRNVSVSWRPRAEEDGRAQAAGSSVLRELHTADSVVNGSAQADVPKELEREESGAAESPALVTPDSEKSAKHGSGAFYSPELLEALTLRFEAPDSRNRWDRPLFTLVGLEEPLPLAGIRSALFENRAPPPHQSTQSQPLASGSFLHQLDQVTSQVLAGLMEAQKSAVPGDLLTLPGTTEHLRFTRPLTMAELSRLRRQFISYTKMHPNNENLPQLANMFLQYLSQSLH

Tests used:
Assay in all cases: log2 fold change, soluble protein after heating vs DMSO (PISA); higher = thermal stabilisation; K562 cells, 10 uM, 30 min; active = over 0.2 and 3.5 SD of the protein, either way, in both replicates (recomputed)
bafetinib = compound: Cc1ccc(NC(=O)c2ccc(CN3CC[C@H](N(C)C)C3)c(C(F)(F)F)c2)cc1Nc1nccc(-c2cncnc2)n1 [bafetinib]
In short: (§1)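 K562 cells at 2×10^6 cells/mL were treated for 30 min with 10 μM compound, and aliquots were heated for 3 min over 48°C-58°C before pooling. Extraction used PBS with 0.5% NP-40 at 4°C, and soluble protein was the supernatant after 21,000xg for 90 min, measured by TMTpro 16plex LC-MS/MS with channel sums equalised. Thermal stability values, relative to control samples and from duplicates, are log2 fold changes.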

[1] = compound: Cc1cccc(CC(=O)N2CCc3c2ccc(-c2cn(C)c4ncnc(N)c24)c3F)n1
In short: as §1

nilotinib = compound: Cc1cn(-c2cc(NC(=O)c3ccc(C)c(Nc4nccc(-c5cccnc5)n4)c3)cc(C(F)(F)F)c2)cn1 [nilotinib]
In short: as §1

[2] = compound: Cc1nc(Nc2n[nH]c3c2CN(C(=O)N[C@H](CN(C)C)c2ccccc2)C3(C)C)c2sccc2n1
In short: as §1

dasatinib = compound: Cc1nc(Nc2ncc(C(=O)Nc3c(C)cccc3Cl)s2)cc(N2CCN(CCO)CC2)n1 [dasatinib]
In short: as §1

[3] = compound: Cc1ncc(-c2ccnc(Nc3ccc(S(C)(=O)=O)cc3)n2)n1C(C)C
In short: as §1

[4] = compound: Cn1cc(-c2ccc3c(c2)CCN3C(=O)Cc2cccc(C(F)(F)F)c2)c2c(N)ncnc21
In short: as §1

[5] = compound: Cn1cc(-c2ccc3nnc(C(F)(F)c4ccc5ncccc5c4)n3n2)cn1
In short: as §1

tipifarnib = compound: Cn1cncc1[C@@](N)(c1ccc(Cl)cc1)c1ccc2c(c1)c(-c1cccc(Cl)c1)cc(=O)n2C [tipifarnib]
In short: as §1

mubritinib = compound: FC(F)(F)c1ccc(/C=C/c2nc(COc3ccc(CCCCn4ccnn4)cc3)co2)cc1 [mubritinib]
In short: as §1

[6] = compound: NC(=O)Nc1cc(-c2cccc(F)c2)sc1C(=O)N[C@H]1CCCNC1
In short: as §1

[7] = compound: NC(=O)c1cnc(N[C@@H]2CCCC[C@@H]2N)nc1Nc1cccc(-n2nccn2)c1
In short: as §1

[8] = compound: NC1(c2ccc(-c3nc4ccn5c(=O)[nH]nc5c4cc3-c3ccccc3)cc2)CCC1
In short: as §1

[9] = compound: NCC(=O)Nc1ccc(-n2nc(C(F)(F)F)cc2-c2ccc3c(ccc4ccccc43)c2)cc1
In short: as §1

entinostat = compound: Nc1ccccc1NC(=O)c1ccc(CNC(=O)OCc2cccnc2)cc1 [entinostat]
In short: as §1

vorinostat = compound: O=C(CCCCCCC(=O)Nc1ccccc1)NO [vorinostat]
In short: as §1

citarinostat = compound: O=C(CCCCCCNC(=O)c1cnc(N(c2ccccc2)c2ccccc2Cl)nc1)NO [citarinostat]
In short: as §1

silmitasertib = compound: O=C(O)c1ccc2c(c1)nc(Nc1cccc(Cl)c1)c1ccncc12 [silmitasertib]
In short: as §1

[10] = compound: O=C1NC(=O)C(c2cnc3ccccn23)=C1c1cn2c3c(cc(F)cc13)CN(C(=O)N1CCCCC1)CC2
In short: as §1

[11] = compound: c1cc(OCCN2CCCCC2)cc(-c2n[nH]c3ccc(-c4nnc[nH]4)cc23)c1
In short: as §1

Measured: log2 fold change

LETM1 (UniProt O95202)
inactive: bafetinib -0.132 | [1] 0.021 | nilotinib -0.002 | [2] -0.011 | dasatinib -0.022 | [3] 0 | [4] 0.042 | [5] 0.018 | tipifarnib 0.01 | mubritinib -0.04 | [6] -0.002 | [7] -0.028 | [8] -0.06 | [9] -0.06 | entinostat 0.027 | vorinostat 0.052 | citarinostat 0.035 | silmitasertib -0.016 | [10] -0.034 | [11] 0

LLPH (UniProt Q9BRT6)
inactive: bafetinib 0.491 | [1] 0.034 | nilotinib -0.059 | [2] 0.145 | dasatinib 0.223 | [3] -0.034 | [4] -0.4 | [5] -0.295 | tipifarnib -0.157 | mubritinib -0.325 | [6] 0.159 | [7] 0.169 | [8] 0.371 | [9] 0.191 | entinostat -0.165 | vorinostat -0.075 | citarinostat -0.169 | silmitasertib 0.263 | [10] 0.282 | [11] -0.216

LRRC47 (UniProt Q8N1G4)
inactive: bafetinib 0.016 | [1] -0.001 | nilotinib 0.002 | [2] 0.018 | dasatinib -0.044 | [3] 0.013 | [4] 0.048 | [5] 0.03 | tipifarnib -0.066 | mubritinib 0.04 | [6] 0.014 | [7] -0.019 | [8] -0.025 | [9] 0.053 | entinostat -0.016 | vorinostat 0.016 | citarinostat -0.006 | silmitasertib -0.039 | [10] -0.004 | [11] 0.007

LEMD2 (UniProt Q8NC56)
inactive: bafetinib -0.036 | [1] -0.008 | nilotinib -0.035 | [2] -0.123 | dasatinib -0.079 | [3] 0.011 | [4] 0.089 | [5] 0.008 | tipifarnib -0.045 | mubritinib -0.021 | [6] 0.008 | [7] -0.139 | [8] -0.112 | [9] -0.157 | entinostat 0.004 | vorinostat 0.04 | citarinostat 0.058 | silmitasertib -0.044 | [10] -0.02 | [11] -0.046

LMNB2 (UniProt Q03252)
inactive: bafetinib -0.067 | [1] -0.078 | nilotinib 0.022 | [2] -0.077 | dasatinib 0.101 | [3] -0.158 | [4] 0.015 | [5] -0.007 | tipifarnib 0.166 | mubritinib -0.043 | [6] 0.079 | [7] -0.077 | [8] 0.068 | [9] -0.09 | entinostat -0.006 | vorinostat -0.047 | citarinostat 0.015 | silmitasertib 0.018 | [10] -0.101 | [11] -0.07

LARS2 (UniProt Q15031)
inactive: bafetinib -0.07 | [1] 0 | nilotinib 0.004 | [2] -0.01 | dasatinib -0.064 | [3] 0.008 | [4] 0.034 | [5] 0.009 | tipifarnib -0.085 | mubritinib -0.102 | [6] -0.022 | [7] -0.017 | [8] -0.151 | [9] -0.027 | entinostat 0.028 | vorinostat 0.056 | citarinostat 0.082 | silmitasertib 0.009 | [10] -0.09 | [11] -0.024

L3HYPDH (UniProt Q96EM0)
inactive: bafetinib -0.009 | [1] -0.019 | nilotinib 0.051 | [2] 0.004 | dasatinib 0.05 | [3] 0.026 | [4] 0.141 | [5] 0.031 | tipifarnib -0.028 | mubritinib 0.076 | [6] -0.035 | [7] 0 | [8] -0.096 | [9] 0.031 | entinostat 0.004 | vorinostat 0.023 | citarinostat 0.018 | silmitasertib -0.001 | [10] 0.009 | [11] -0.047

LIMD1 (UniProt Q9UGP4)
inactive: bafetinib -0.143 | [1] 0.017 | nilotinib 0.023 | [2] -0.085 | dasatinib 0.001 | [3] -0.008 | [4] 0.021 | [5] -0.015 | tipifarnib -0.071 | mubritinib 0.012 | [6] 0.009 | [7] 0.005 | [8] 0.004 | [9] -0.029 | entinostat -0.038 | vorinostat 0.025 | citarinostat 0.052 | silmitasertib 0.03 | [10] -0.06 | [11] 0.01

LARP1 (UniProt Q6PKG0)
inactive: bafetinib 0.049 | [1] 0.024 | nilotinib -0.063 | [2] -0.014 | dasatinib 0.014 | [3] -0.028 | [4] -0.067 | [5] -0.043 | tipifarnib 0.047 | mubritinib -0.011 | [6] -0.064 | [7] 0.002 | [8] 0.051 | [9] -0.04 | entinostat 0.02 | vorinostat 0.043 | citarinostat -0.025 | silmitasertib 0.028 | [10] 0.113 | [11] -0.133

LMBRD1 (UniProt Q9NUN5)
inactive: bafetinib -0.065 | [1] 0.01 | nilotinib -0.006 | [2] -0.062 | dasatinib 0.064 | [3] 0.026 | [4] -0.139 | [5] 0.014 | tipifarnib -0.156 | mubritinib 0.08 | [6] 0.006 | [7] 0.046 | [8] -0.243 | [9] -0.162 | entinostat 0.099 | vorinostat 0.048 | citarinostat 0.048 | silmitasertib -0.028 | [10] -0.003 | [11] 0.049

Copied from above (three entries):
LMNB2 (UniProt Q03252)
inactive: bafetinib -0.067 | [1] -0.078 | nilotinib 0.022 | [2] -0.077 | dasatinib 0.101 | [3] -0.158 | [4] 0.015 | [5] -0.007 | tipifarnib 0.166 | mubritinib -0.043 | [6] 0.079 | [7] -0.077 | [8] 0.068 | [9] -0.09 | entinostat -0.006 | vorinostat -0.047 | citarinostat 0.015 | silmitasertib 0.018 | [10] -0.101 | [11] -0.07

LARS2 (UniProt Q15031)
inactive: bafetinib -0.07 | [1] 0 | nilotinib 0.004 | [2] -0.01 | dasatinib -0.064 | [3] 0.008 | [4] 0.034 | [5] 0.009 | tipifarnib -0.085 | mubritinib -0.102 | [6] -0.022 | [7] -0.017 | [8] -0.151 | [9] -0.027 | entinostat 0.028 | vorinostat 0.056 | citarinostat 0.082 | silmitasertib 0.009 | [10] -0.09 | [11] -0.024

L3HYPDH (UniProt Q96EM0)
inactive: bafetinib -0.009 | [1] -0.019 | nilotinib 0.051 | [2] 0.004 | dasatinib 0.05 | [3] 0.026 | [4] 0.141 | [5] 0.031 | tipifarnib -0.028 | mubritinib 0.076 | [6] -0.035 | [7] 0 | [8] -0.096 | [9] 0.031 | entinostat 0.004 | vorinostat 0.023 | citarinostat 0.018 | silmitasertib -0.001 | [10] 0.009 | [11] -0.047

The list continues.

LACTB2 (UniProt Q53H82)
inactive: bafetinib -0.026 | [1] 0.024 | nilotinib 0.05 | [2] -0.007 | dasatinib 0.052 | [3] 0.011 | [4] 0 | [5] 0.009 | tipifarnib 0.012 | mubritinib 0.01 | [6] 0.005 | [7] -0.007 | [8] 0.02 | [9] 0.025 | entinostat -0.006 | vorinostat -0.049 | citarinostat 0.021 | silmitasertib -0.017 | [10] -0.008 | [11] 0.03

LAMTOR5 (UniProt O43504)
inactive: bafetinib -0.087 | [1] -0.157 | nilotinib 0.068 | [2] -0.027 | dasatinib -0.042 | [3] -0.113 | [4] -0.005 | [5] 0.14 | tipifarnib 0.35 | mubritinib 0.105 | [6] 0.141 | [7] 0.101 | [8] -0.091 | [9] -0.002 | entinostat 0.099 | vorinostat 0.018 | citarinostat 0.041 | silmitasertib 0.029 | [10] -0.025 | [11] -0.034

LMBRD2 (UniProt Q68DH5)
inactive: bafetinib -0.142 | [1] -0.006 | nilotinib -0.048 | [2] 0.041 | dasatinib 0.019 | [3] -0.028 | [4] -0.03 | [5] 0.043 | tipifarnib 0.189 | mubritinib -0.007 | [6] 0.028 | [7] 0.044 | [8] 0.099 | [9] -0.025 | entinostat -0.011 | vorinostat -0.015 | citarinostat 0.057 | silmitasertib -0.049 | [10] -0.09 | [11] -0.005

LENG1 (UniProt Q96BZ8)
inactive: bafetinib -0.027 | [1] -0.099 | nilotinib 0.021 | [2] 0.079 | dasatinib 0.051 | [3] -0.022 | [4] 0.006 | [5] 0.005 | tipifarnib 0.013 | mubritinib -0.008 | [6] 0.106 | [7] -0.057 | [8] 0.048 | [9] -0.011 | entinostat 0.03 | vorinostat -0.048 | citarinostat -0.034 | silmitasertib -0.037 | [10] -0.065 | [11] -0.041

LIN28B (UniProt Q6ZN17)
inactive: bafetinib 0.048 | [1] -0.064 | nilotinib 0.023 | [2] -0.024 | dasatinib 0.077 | [3] 0.033 | [4] -0.108 | [5] -0.072 | tipifarnib 0.027 | mubritinib -0.061 | [6] 0.012 | [7] 0.043 | [8] 0.186 | [9] 0.087 | entinostat -0.066 | vorinostat -0.051 | citarinostat -0.015 | silmitasertib 0.08 | [10] 0.145 | [11] -0.175

LIMS1 (UniProt P48059)
inactive: bafetinib 0.007

KTI12 (UniProt Q96EK9)
inactive: bafetinib 0.06 | [1] 0.036 | nilotinib 0.083 | [2] -0.002 | dasatinib -0.056 | [3] -0.007 | [4] 0.038 | [5] 0.034 | tipifarnib -0.048 | mubritinib 0.039 | [6] -0.052 | [7] 0.048 | [8] -0.13 | [9] 0.038 | entinostat 0.035 | vorinostat 0.043 | citarinostat 0.062 | silmitasertib -0.1 | [10] 0.026 | [11] -0.023
